For four molecules, binding results are on record in article PMC3493068.

No constants are given. Whether binding was seen depends on the method and setting. In cells and extracts the contact can be indirect. A result given as binding can be weak or reduced; the word gives no strength. Where a sequence is shown, tags or fusion partners need not be part of it.

What all share (experiment): co-IP; COS-7 cells co-transfected with FLAG-MG53 and c-myc-dysferlin constructs, lysed 48 h later in 20 mM Tris-HCl pH 7.5, 150 mM NaCl, 1% NP-40 without CaCl2 and EGTA; IP with anti-FLAG (M2) or anti-c-myc (9E10), immunoblot
Test [1] concerns the target T1, FLAG-tagged full-length human MG53 (human) (UniProt Q6ZMU5).
T1 sequence: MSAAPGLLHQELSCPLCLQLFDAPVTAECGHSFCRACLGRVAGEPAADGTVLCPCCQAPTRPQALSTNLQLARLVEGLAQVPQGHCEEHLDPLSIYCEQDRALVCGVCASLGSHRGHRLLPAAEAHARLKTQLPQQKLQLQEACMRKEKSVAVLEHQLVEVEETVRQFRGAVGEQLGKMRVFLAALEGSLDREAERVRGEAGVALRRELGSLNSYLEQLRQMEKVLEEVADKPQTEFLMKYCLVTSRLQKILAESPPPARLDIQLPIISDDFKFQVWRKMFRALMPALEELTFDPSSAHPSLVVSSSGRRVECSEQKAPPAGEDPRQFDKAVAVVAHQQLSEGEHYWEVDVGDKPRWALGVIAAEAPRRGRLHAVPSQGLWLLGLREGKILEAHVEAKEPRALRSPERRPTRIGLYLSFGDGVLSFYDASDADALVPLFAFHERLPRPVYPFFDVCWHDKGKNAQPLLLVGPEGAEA

The target of test [2] is c-myc-tagged human dysferlin deletion mutant aa 1-1080 (transmembrane domain retained) (human).
For test [3], the target named is c-myc-tagged human dysferlin deletion mutant aa 1-149 (transmembrane domain retained) (human).
The target of test [4] is c-myc-tagged human dysferlin deletion mutant aa 1-349 (transmembrane domain retained) (human).

Turning to “c-myc-tagged human dysferlin deletion mutant aa 1-149 (transmembrane domain retained) (domain or fragment)”, the binding result in test [1] is on record as “binds”. Take “c-myc-tagged human dysferlin deletion mutant aa 1-349 (transmembrane domain retained) (domain or fragment)”: in test [1], the binding entry was “binds”. Still for that read-out and setting: in the case of “c-myc-tagged human dysferlin deletion mutant aa 1-1080 (transmembrane domain retained) (domain or fragment)” it was “binds”.

B1: FLAG-tagged full-length human MG53 (protein, UniProt Q6ZMU5 1-477)
chain: MSAAPGLLHQELSCPLCLQLFDAPVTAECGHSFCRACLGRVAGEPAADGTVLCPCCQAPTRPQALSTNLQLARLVEGLAQVPQGHCEEHLDPLSIYCEQDRALVCGVCASLGSHRGHRLLPAAEAHARLKTQLPQQKLQLQEACMRKEKSVAVLEHQLVEVEETVRQFRGAVGEQLGKMRVFLAALEGSLDREAERVRGEAGVALRRELGSLNSYLEQLRQMEKVLEEVADKPQTEFLMKYCLVTSRLQKILAESPPPARLDIQLPIISDDFKFQVWRKMFRALMPALEELTFDPSSAHPSLVVSSSGRRVECSEQKAPPAGEDPRQFDKAVAVVAHQQLSEGEHYWEVDVGDKPRWALGVIAAEAPRRGRLHAVPSQGLWLLGLREGKILEAHVEAKEPRALRSPERRPTRIGLYLSFGDGVLSFYDASDADALVPLFAFHERLPRPVYPFFDVCWHDKGKNAQPLLLVGPEGAEA
Turning to B1, the binding result in test [2], in test [3] and in test [4] was “binds” throughout.
